For one experiment, the target named is T1, 3 × Flag-POGZ (mouse) (UniProt Q8BZH4).
T1 sequence: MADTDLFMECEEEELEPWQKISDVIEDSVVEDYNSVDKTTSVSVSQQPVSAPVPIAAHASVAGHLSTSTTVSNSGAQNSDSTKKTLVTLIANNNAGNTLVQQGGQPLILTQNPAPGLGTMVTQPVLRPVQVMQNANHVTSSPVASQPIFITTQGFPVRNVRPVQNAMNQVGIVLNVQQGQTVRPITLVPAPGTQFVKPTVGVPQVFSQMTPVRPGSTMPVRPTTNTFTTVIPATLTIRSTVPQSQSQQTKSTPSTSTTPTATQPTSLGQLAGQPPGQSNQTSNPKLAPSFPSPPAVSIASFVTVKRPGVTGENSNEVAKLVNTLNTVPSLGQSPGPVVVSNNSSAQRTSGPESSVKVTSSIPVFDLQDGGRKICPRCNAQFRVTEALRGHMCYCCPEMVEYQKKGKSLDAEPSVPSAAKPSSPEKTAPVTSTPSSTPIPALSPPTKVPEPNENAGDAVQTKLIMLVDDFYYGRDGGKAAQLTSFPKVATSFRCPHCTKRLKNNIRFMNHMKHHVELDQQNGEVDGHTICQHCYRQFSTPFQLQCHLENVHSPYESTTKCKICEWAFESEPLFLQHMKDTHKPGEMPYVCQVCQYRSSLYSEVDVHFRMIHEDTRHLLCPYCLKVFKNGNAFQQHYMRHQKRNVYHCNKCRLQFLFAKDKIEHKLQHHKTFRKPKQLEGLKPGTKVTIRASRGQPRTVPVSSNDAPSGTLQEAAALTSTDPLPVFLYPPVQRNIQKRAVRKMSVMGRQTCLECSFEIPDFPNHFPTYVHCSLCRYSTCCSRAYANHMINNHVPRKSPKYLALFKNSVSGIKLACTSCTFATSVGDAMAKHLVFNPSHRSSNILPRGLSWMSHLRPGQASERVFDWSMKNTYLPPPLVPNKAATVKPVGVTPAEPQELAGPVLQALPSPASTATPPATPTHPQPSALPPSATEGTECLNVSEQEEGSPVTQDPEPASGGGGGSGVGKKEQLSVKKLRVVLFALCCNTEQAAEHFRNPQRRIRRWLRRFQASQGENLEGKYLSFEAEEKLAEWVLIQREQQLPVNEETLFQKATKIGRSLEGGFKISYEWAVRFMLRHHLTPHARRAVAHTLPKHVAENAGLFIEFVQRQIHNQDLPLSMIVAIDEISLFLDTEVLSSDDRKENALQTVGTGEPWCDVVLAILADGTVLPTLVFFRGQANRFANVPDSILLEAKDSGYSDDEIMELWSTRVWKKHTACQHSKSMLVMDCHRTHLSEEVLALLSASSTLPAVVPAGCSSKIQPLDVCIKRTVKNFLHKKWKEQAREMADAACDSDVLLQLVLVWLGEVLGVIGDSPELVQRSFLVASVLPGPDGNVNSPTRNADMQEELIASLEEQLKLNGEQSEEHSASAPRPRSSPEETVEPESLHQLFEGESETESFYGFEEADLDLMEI
The experiment can be described thus: co-IP; FLAG-POGZ Pogz−/− ESCs; total cell lysate with antibody-conjugated Dynabeads Protein G overnight at 4 °C, three washes with PBS 0.1% Tween; Western blot. On the technique in general: In western blotting, separated proteins are transferred to a membrane and probed.

Sequences of proteins named here, by UniProt entry; tags and fusion partners are left off.
UniProt Q3TKT4: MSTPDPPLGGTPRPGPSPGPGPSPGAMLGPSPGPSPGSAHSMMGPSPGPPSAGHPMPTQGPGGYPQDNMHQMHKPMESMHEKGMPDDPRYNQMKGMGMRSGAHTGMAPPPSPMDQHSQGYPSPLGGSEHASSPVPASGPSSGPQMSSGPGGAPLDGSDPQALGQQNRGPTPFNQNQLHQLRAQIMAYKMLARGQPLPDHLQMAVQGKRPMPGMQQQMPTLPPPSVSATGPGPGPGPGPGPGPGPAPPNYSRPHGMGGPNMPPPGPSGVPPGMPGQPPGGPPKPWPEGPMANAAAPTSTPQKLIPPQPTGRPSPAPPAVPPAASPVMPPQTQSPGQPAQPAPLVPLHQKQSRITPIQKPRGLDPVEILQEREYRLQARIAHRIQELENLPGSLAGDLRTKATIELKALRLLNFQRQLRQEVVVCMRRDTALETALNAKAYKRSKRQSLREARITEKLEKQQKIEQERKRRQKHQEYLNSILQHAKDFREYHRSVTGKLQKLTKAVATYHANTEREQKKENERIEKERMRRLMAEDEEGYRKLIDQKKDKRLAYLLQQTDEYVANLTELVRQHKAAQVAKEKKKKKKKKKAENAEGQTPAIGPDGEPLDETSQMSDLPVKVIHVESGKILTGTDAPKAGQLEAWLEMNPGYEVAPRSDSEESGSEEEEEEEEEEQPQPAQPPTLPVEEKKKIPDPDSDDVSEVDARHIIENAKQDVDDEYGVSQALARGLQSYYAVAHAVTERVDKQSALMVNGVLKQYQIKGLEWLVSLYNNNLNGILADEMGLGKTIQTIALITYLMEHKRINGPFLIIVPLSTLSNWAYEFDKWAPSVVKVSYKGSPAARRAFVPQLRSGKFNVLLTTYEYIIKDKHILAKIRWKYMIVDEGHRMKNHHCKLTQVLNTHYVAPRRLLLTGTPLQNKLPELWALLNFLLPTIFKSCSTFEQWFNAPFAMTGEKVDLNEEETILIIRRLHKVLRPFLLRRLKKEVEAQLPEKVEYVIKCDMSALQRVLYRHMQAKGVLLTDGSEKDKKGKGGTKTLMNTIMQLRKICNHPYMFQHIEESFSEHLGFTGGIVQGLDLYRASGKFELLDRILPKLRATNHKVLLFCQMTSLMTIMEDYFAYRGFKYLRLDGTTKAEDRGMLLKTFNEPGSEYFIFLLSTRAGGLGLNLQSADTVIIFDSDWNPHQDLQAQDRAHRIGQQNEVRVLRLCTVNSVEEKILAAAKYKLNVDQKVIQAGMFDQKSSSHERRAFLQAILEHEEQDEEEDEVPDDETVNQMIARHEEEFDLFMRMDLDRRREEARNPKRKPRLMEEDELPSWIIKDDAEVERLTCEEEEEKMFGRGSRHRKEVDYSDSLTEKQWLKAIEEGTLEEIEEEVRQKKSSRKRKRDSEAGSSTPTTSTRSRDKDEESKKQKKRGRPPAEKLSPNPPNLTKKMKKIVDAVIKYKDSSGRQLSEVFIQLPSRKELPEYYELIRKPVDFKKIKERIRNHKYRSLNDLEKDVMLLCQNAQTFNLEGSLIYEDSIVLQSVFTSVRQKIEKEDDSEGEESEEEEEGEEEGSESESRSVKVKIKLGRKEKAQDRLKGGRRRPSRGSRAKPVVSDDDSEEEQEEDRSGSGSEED
UniProt P97496: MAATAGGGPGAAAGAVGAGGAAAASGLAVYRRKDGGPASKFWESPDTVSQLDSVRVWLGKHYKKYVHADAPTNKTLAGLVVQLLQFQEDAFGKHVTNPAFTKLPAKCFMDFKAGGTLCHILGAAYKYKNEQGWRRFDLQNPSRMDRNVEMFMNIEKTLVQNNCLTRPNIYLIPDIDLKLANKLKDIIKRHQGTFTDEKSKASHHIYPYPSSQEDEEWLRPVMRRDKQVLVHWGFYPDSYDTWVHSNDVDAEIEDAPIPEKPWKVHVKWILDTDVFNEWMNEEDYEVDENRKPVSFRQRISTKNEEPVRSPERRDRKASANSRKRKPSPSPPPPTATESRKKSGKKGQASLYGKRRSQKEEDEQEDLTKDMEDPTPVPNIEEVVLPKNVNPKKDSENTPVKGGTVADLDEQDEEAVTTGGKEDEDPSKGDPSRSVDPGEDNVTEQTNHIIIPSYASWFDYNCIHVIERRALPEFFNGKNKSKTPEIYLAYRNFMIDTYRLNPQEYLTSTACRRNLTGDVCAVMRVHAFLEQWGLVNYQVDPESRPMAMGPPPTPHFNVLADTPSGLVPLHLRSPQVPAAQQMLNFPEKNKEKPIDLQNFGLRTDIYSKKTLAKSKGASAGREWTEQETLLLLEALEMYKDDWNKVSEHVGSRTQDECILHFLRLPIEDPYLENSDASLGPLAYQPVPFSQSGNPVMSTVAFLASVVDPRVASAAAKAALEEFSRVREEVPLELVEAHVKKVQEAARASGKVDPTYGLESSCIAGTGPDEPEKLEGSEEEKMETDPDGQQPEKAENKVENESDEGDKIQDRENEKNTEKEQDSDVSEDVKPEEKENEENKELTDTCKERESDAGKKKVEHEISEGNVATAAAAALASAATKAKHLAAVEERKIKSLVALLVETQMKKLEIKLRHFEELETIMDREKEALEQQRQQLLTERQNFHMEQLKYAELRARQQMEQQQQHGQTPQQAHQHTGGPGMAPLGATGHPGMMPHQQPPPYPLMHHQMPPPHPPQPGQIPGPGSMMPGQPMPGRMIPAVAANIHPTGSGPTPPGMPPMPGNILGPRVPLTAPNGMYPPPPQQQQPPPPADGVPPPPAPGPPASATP

In experiment [1] the target is T2, POGZ (endogenous, mouse ESCs) (mouse (endogenous in mESCs R1)) (UniProt Q8BZH4).
T2 sequence: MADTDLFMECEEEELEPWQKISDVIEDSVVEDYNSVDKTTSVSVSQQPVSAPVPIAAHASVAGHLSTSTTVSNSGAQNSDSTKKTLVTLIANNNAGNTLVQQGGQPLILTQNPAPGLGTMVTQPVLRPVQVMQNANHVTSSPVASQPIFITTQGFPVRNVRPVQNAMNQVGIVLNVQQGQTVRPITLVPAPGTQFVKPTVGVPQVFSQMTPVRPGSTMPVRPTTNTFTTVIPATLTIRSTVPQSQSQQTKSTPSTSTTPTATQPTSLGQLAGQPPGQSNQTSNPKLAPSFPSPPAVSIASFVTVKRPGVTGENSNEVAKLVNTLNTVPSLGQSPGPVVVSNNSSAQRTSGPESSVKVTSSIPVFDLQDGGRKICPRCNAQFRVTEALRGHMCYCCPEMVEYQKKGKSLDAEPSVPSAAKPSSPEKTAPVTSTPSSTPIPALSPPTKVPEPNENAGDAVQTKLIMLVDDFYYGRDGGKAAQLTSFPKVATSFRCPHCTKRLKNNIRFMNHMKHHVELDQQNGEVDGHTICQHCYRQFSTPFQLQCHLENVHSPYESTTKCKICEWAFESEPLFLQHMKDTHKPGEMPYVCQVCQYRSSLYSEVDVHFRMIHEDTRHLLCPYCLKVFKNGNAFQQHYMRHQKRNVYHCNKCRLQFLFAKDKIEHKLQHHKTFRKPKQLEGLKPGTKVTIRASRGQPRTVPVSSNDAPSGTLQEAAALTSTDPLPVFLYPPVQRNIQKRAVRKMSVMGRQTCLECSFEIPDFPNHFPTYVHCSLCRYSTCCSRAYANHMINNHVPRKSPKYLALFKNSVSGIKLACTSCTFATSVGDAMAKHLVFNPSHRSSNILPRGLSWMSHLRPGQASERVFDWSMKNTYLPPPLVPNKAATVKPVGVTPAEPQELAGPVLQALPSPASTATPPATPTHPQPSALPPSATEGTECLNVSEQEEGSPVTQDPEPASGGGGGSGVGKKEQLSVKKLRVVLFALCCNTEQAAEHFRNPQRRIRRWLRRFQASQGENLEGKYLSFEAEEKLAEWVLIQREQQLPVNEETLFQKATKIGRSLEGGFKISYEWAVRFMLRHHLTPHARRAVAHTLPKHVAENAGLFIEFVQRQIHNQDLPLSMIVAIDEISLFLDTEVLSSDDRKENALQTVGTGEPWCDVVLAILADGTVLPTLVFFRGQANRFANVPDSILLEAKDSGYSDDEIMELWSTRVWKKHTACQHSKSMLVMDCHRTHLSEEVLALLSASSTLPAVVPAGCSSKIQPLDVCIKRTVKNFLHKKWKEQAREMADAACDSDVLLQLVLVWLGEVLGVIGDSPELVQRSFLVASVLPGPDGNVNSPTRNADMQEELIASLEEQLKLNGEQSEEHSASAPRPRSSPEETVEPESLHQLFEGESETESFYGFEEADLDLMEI
In words: co-IP; endogenous proteins in WT ESCs; total cell lysate with antibody-conjugated Dynabeads Protein G overnight at 4 °C, three washes with PBS 0.1% Tween; Western blot.

For experiment [2], the target named is T2, POGZ (endogenous, mouse ESCs) (mouse (endogenous in mESCs R1)). The experiment is described as above. The source holds these as a separate data set.
Experiment [3] addresses T3, ADNP (mouse (endogenous in mESCs)) (UniProt Q9Z103).
T3 sequence: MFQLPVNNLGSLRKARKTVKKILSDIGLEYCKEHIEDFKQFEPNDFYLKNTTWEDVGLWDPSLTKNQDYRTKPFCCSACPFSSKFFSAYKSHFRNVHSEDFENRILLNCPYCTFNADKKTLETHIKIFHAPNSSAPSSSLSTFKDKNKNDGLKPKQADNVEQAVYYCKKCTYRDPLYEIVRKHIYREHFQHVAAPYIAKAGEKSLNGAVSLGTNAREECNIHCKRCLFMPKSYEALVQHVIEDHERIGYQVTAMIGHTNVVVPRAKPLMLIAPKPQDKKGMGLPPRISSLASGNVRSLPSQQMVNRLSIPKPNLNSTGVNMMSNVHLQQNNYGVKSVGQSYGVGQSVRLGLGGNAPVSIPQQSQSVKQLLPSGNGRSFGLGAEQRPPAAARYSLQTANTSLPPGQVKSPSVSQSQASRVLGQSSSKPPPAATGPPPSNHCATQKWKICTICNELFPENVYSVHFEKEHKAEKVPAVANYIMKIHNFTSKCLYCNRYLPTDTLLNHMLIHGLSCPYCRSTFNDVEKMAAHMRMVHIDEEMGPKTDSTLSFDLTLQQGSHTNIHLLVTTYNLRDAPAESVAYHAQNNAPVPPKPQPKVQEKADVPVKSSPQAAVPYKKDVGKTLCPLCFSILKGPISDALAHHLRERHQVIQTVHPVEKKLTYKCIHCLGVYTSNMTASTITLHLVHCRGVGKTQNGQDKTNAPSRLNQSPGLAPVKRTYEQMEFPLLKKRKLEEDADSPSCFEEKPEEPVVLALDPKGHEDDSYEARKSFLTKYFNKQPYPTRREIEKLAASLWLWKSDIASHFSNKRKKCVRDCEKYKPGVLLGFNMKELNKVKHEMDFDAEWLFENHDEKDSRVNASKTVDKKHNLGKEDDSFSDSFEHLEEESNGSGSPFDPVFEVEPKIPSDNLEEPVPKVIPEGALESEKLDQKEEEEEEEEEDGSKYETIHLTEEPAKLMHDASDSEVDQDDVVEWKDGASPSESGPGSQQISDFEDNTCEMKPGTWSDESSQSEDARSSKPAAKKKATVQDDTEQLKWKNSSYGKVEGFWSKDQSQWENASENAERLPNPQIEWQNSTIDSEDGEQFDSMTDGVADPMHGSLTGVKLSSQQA
Described as above.

Read-outs that look alike come from different tables or passages of the source. Results are given in words; binding and its absence hold for the method and conditions named. Binding seen in cells or lysates may run through a third protein. Some binding calls cover weakened binding; strength is not graded here. For part of these data: Where a sequence is shown, tags or fusion partners need not be part of it.

On to “SMARCA4/BRG1 (endogenous, mouse ESCs) (from UniProt Q3TKT4 1-1613)”, for which the binding entry (with 3 × Flag-POGZ (mouse); in experiment [1]) was “binds” throughout.

Turning to “SMARCC1/BAF155 (endogenous, mouse ESCs) (from UniProt P97496 1-1104)”, the binding result (with 3 × Flag-POGZ (mouse); in experiment [1]) was “binds” throughout.

B1: ADNP (protein, UniProt Q9Z103 1-1108)
chain: MFQLPVNNLGSLRKARKTVKKILSDIGLEYCKEHIEDFKQFEPNDFYLKNTTWEDVGLWDPSLTKNQDYRTKPFCCSACPFSSKFFSAYKSHFRNVHSEDFENRILLNCPYCTFNADKKTLETHIKIFHAPNSSAPSSSLSTFKDKNKNDGLKPKQADNVEQAVYYCKKCTYRDPLYEIVRKHIYREHFQHVAAPYIAKAGEKSLNGAVSLGTNAREECNIHCKRCLFMPKSYEALVQHVIEDHERIGYQVTAMIGHTNVVVPRAKPLMLIAPKPQDKKGMGLPPRISSLASGNVRSLPSQQMVNRLSIPKPNLNSTGVNMMSNVHLQQNNYGVKSVGQSYGVGQSVRLGLGGNAPVSIPQQSQSVKQLLPSGNGRSFGLGAEQRPPAAARYSLQTANTSLPPGQVKSPSVSQSQASRVLGQSSSKPPPAATGPPPSNHCATQKWKICTICNELFPENVYSVHFEKEHKAEKVPAVANYIMKIHNFTSKCLYCNRYLPTDTLLNHMLIHGLSCPYCRSTFNDVEKMAAHMRMVHIDEEMGPKTDSTLSFDLTLQQGSHTNIHLLVTTYNLRDAPAESVAYHAQNNAPVPPKPQPKVQEKADVPVKSSPQAAVPYKKDVGKTLCPLCFSILKGPISDALAHHLRERHQVIQTVHPVEKKLTYKCIHCLGVYTSNMTASTITLHLVHCRGVGKTQNGQDKTNAPSRLNQSPGLAPVKRTYEQMEFPLLKKRKLEEDADSPSCFEEKPEEPVVLALDPKGHEDDSYEARKSFLTKYFNKQPYPTRREIEKLAASLWLWKSDIASHFSNKRKKCVRDCEKYKPGVLLGFNMKELNKVKHEMDFDAEWLFENHDEKDSRVNASKTVDKKHNLGKEDDSFSDSFEHLEEESNGSGSPFDPVFEVEPKIPSDNLEEPVPKVIPEGALESEKLDQKEEEEEEEEEDGSKYETIHLTEEPAKLMHDASDSEVDQDDVVEWKDGASPSESGPGSQQISDFEDNTCEMKPGTWSDESSQSEDARSSKPAAKKKATVQDDTEQLKWKNSSYGKVEGFWSKDQSQWENASENAERLPNPQIEWQNSTIDSEDGEQFDSMTDGVADPMHGSLTGVKLSSQQA
In the case of B1, the binding result in experiment [2] is “no binding”.

B2: POGZ (endogenous, mouse ESCs) (protein, UniProt Q8BZH4 1-1409)
chain: MADTDLFMECEEEELEPWQKISDVIEDSVVEDYNSVDKTTSVSVSQQPVSAPVPIAAHASVAGHLSTSTTVSNSGAQNSDSTKKTLVTLIANNNAGNTLVQQGGQPLILTQNPAPGLGTMVTQPVLRPVQVMQNANHVTSSPVASQPIFITTQGFPVRNVRPVQNAMNQVGIVLNVQQGQTVRPITLVPAPGTQFVKPTVGVPQVFSQMTPVRPGSTMPVRPTTNTFTTVIPATLTIRSTVPQSQSQQTKSTPSTSTTPTATQPTSLGQLAGQPPGQSNQTSNPKLAPSFPSPPAVSIASFVTVKRPGVTGENSNEVAKLVNTLNTVPSLGQSPGPVVVSNNSSAQRTSGPESSVKVTSSIPVFDLQDGGRKICPRCNAQFRVTEALRGHMCYCCPEMVEYQKKGKSLDAEPSVPSAAKPSSPEKTAPVTSTPSSTPIPALSPPTKVPEPNENAGDAVQTKLIMLVDDFYYGRDGGKAAQLTSFPKVATSFRCPHCTKRLKNNIRFMNHMKHHVELDQQNGEVDGHTICQHCYRQFSTPFQLQCHLENVHSPYESTTKCKICEWAFESEPLFLQHMKDTHKPGEMPYVCQVCQYRSSLYSEVDVHFRMIHEDTRHLLCPYCLKVFKNGNAFQQHYMRHQKRNVYHCNKCRLQFLFAKDKIEHKLQHHKTFRKPKQLEGLKPGTKVTIRASRGQPRTVPVSSNDAPSGTLQEAAALTSTDPLPVFLYPPVQRNIQKRAVRKMSVMGRQTCLECSFEIPDFPNHFPTYVHCSLCRYSTCCSRAYANHMINNHVPRKSPKYLALFKNSVSGIKLACTSCTFATSVGDAMAKHLVFNPSHRSSNILPRGLSWMSHLRPGQASERVFDWSMKNTYLPPPLVPNKAATVKPVGVTPAEPQELAGPVLQALPSPASTATPPATPTHPQPSALPPSATEGTECLNVSEQEEGSPVTQDPEPASGGGGGSGVGKKEQLSVKKLRVVLFALCCNTEQAAEHFRNPQRRIRRWLRRFQASQGENLEGKYLSFEAEEKLAEWVLIQREQQLPVNEETLFQKATKIGRSLEGGFKISYEWAVRFMLRHHLTPHARRAVAHTLPKHVAENAGLFIEFVQRQIHNQDLPLSMIVAIDEISLFLDTEVLSSDDRKENALQTVGTGEPWCDVVLAILADGTVLPTLVFFRGQANRFANVPDSILLEAKDSGYSDDEIMELWSTRVWKKHTACQHSKSMLVMDCHRTHLSEEVLALLSASSTLPAVVPAGCSSKIQPLDVCIKRTVKNFLHKKWKEQAREMADAACDSDVLLQLVLVWLGEVLGVIGDSPELVQRSFLVASVLPGPDGNVNSPTRNADMQEELIASLEEQLKLNGEQSEEHSASAPRPRSSPEETVEPESLHQLFEGESETESFYGFEEADLDLMEI
Regarding B2, the binding result in experiment [3] was “no binding”.

The values are drawn from publication PMC9161502.
